Chains of the proteins cited; added tags and fusions are not shown. A line that says so, or that is headed by a name, gives the form on record, which may keep a tag or linker.
UniProt P18858, whole entry: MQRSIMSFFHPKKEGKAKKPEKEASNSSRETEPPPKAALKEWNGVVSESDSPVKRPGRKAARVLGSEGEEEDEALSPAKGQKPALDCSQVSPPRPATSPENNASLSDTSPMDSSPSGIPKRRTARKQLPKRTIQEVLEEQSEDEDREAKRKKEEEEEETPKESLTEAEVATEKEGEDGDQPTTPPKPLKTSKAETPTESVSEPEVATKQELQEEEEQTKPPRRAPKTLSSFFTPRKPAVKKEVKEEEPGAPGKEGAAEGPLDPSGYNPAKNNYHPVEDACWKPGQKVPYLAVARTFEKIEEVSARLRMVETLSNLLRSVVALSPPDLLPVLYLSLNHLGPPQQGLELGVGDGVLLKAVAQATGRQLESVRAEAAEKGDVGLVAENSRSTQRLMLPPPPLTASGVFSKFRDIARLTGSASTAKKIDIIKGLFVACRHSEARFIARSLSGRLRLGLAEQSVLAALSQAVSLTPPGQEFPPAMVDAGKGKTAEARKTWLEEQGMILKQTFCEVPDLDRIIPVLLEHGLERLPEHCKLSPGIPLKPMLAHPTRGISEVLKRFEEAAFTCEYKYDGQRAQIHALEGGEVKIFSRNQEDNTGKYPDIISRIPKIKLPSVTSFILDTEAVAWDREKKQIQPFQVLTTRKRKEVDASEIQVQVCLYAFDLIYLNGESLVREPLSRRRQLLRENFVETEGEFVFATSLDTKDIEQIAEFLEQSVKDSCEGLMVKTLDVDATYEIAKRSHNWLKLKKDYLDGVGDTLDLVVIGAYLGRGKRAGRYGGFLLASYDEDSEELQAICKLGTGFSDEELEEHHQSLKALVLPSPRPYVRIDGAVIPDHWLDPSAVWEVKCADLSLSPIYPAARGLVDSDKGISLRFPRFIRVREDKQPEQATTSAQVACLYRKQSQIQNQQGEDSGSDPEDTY
DNA ligase IV/XRCC4 complex (hLigIV/XRCC4) (Homo sapiens), one chain, as listed by the source, chain 1 of 2: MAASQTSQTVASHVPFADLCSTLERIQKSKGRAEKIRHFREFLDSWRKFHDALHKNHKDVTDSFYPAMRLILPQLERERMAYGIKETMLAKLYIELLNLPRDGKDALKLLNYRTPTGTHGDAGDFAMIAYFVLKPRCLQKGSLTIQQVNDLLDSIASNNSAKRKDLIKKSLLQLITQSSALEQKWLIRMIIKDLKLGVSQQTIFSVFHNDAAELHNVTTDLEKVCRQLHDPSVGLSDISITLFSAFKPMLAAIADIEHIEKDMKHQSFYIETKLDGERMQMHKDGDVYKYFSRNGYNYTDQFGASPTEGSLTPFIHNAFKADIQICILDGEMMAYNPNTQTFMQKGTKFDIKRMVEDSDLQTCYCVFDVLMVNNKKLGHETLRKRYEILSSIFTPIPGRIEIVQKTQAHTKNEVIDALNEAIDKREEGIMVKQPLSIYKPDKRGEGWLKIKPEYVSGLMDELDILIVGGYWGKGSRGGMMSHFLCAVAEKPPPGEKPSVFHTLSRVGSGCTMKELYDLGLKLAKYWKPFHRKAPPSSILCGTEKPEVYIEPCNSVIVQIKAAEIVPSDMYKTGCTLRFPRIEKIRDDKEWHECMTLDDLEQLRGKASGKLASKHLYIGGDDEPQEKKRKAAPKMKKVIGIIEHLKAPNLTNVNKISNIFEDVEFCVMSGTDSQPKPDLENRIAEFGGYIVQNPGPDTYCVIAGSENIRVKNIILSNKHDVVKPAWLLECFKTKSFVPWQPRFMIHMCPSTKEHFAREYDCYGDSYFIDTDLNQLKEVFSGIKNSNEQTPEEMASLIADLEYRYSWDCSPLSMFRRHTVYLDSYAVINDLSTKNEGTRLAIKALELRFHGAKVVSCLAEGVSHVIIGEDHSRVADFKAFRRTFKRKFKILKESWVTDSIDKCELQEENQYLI
DNA ligase IV/XRCC4 complex (hLigIV/XRCC4) (Homo sapiens), one chain, as listed by the source, chain 2 of 2: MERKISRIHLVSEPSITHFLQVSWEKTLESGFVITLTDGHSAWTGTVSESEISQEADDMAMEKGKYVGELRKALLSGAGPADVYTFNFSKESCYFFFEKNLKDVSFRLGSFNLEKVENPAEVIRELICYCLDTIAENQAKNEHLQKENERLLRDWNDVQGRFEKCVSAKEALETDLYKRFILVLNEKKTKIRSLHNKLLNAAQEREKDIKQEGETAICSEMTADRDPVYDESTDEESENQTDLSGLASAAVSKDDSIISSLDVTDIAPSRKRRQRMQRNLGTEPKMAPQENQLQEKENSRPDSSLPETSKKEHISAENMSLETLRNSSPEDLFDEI

In US20150313898:

What was measured:
[1] = molecular target: DNA ligase I (hLigI) (Homo sapiens) (UniProt P18858); experiment: activity assay; conditions: gel-based ligation, 25 C 30 min; inhibited by compounds 67, 82, 189; purified recombinant protein; label: 5'-32P on 18-mer
[2] = test system: T1, DNA ligase III beta (hLigIIIβ) (Homo sapiens); experiment: activity assay; conditions: gel-based ligation, 25 C 30 min; inhibited by compounds 67 and 189; purified recombinant protein; label: 5'-32P on 18-mer
T1 sequence (looked up, limits assumed): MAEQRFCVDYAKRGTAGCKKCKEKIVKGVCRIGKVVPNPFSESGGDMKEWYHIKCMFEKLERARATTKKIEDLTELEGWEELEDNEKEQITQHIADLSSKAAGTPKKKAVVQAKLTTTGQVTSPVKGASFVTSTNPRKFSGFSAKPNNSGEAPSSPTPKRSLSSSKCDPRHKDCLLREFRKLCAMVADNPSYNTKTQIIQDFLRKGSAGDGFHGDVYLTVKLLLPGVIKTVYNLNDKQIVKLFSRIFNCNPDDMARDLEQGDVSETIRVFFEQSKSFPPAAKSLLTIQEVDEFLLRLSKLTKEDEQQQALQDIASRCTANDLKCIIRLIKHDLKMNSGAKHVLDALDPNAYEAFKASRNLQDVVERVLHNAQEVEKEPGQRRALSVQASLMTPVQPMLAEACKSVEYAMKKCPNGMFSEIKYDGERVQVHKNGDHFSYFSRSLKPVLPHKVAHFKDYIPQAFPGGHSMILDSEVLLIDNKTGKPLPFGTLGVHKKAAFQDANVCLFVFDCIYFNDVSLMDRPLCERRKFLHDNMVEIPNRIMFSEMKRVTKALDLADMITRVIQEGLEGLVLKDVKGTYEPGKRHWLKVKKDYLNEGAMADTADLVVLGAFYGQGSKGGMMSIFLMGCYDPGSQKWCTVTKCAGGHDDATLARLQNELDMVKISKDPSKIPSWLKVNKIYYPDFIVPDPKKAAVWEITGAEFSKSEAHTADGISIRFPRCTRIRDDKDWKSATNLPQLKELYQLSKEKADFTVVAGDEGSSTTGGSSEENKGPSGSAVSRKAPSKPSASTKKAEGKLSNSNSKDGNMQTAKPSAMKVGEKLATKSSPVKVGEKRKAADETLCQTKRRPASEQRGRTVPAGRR

[3] = test system: DNA ligase IV/XRCC4 complex (hLigIV/XRCC4) (Homo sapiens); experiment: activity assay; conditions: gel-based ligation, 25 C 30 min; inhibited by compound 189; purified recombinant protein; label: 5'-32P on 18-mer
[4] = molecular target: DNA ligase I (hLigI) (Homo sapiens) (UniProt P18858); experiment: EMSA; conditions: dideoxy residue at 3' terminus of nick; ligation buffer, 25 C, 120 min; DNA-protein complex on 12% native gel; L189 or L82 added in some lanes; purified recombinant protein; label: labeled

Sequence: CGCCAGGGTTTTCCCAGTCACGACC / GTAAAACGACGGCCAGTG
- activity on this sequence [1]: active
- activity on this sequence [2]: active
- activity on this sequence [3]: active

Sequence: CGCCAGGGTTTTCCCAGTCACGACC / GTAAAACGACGGCCAGTG [nonligatable nicked linear duplex]
- binding result [4]: binds

Construct, isoform or probe ends are uncertain for at least one entry. For some of these results: Protein sequences can lack the tags named with them.
